Experimental data: patent US20260258083A1 (AMGEN INC., priority 2023, published 2026)
For some assays here: The same purity stands for every peptide and may come from a single statement. Where no end group is shown, it is not given here. [ ]: non-standard residue; d: D form. pGlu = O=C1CC[C@@H](C(=O)O)N1

How the values were obtained:
[1] = peptide synthesis; conditions: whole synthesis
[2] = test system: FLT3xCD3 TCE SEQ ID NO 93; assay: SPR assay of immobilized peptides binding with TCE; conditions: immobilized peptide, Kinetic 1:1 Binding
Experimental: (§1) Example 14: SPR Assay of Immobilized Peptides Binding with TCE
(§2) A cytiva CM5 chip was first functionalized with PDEA (2-(2pyridinyldithio)ethaneamine) under standard ((1-ethyl-3-(3-dimethylaminopropyl)carbodiimide)/(N-hydroxysuccinimide) EDC/NHS coupling conditions where the PDEA is dissolved to 20 mM and 1 M NaCl in 0.1 M sodium acetate pH 4.3. Binding peptides were dissolved to 50- or 100-ug/mL respectively in PBST, pH 6.5, and coupling times were optimized to yield the desired surface density.

[3] = test system: DLL3xCD3 TCE SEQ ID NO 104; assay: SPR assay of immobilized peptides binding with TCE; conditions: immobilized peptide, Kinetic 1:1 Binding
Experimental: as §1, §2

[4] = test system: Steap 1xCD3 TCE SEQ ID NO 373 + 374 + 375; assay: SPR assay of immobilized peptides binding with TCE; conditions: immobilized peptide, Kinetic 1:1 Binding
Experimental: as §1, §2

Row | Substance | final HPLC purity [1] [%] | Rmax (RU) [2] [RU] | Rmax (RU) [3] [RU] | Rmax (RU) [4] [RU]
1 | [pGlu]DGTEELKGC [listing 1 of 2 here] | >95 | – | – | –
2 | pGlu-DGEEELKGC (N-terminal pyroglutamate; VARIANT 1 Pyroglutamic acid) [listing 1 of 2 here] | – | 20.3 | 47.5 | 30.2
3 | [pGlu]DGTEELKGC [listing 2 of 2 here] | – | 8.1 | 11 | 15.1
4 | [pGlu]DGVEELKGC | >95 | – | – | –
5 | [pGlu]DGIEELKGC | >95 | – | – | –
6 | [pGlu]DGSEELKGC | >95 | – | – | –
7 | pGlu-DGNEELKGC (EDGNEELKGC; non-natural residues) | – | 171 | 58.5 | 395.1
8 | pGlu-DGEEELKGC (N-terminal pyroglutamate; VARIANT 1 Pyroglutamic acid) [listing 2 of 2 here] | >95 | – | – | –
